Some of the results follow.
What was measured:
Assay in all cases: log2 fold change, soluble protein after heating vs DMSO (PISA); higher = thermal stabilisation; K562 cells, 10 uM, 30 min; active = over 0.2 and 3.5 SD of the protein, either way, in both replicates (recomputed)
[1] = compound: Cc1ccc(NC(=O)c2ccc(CN3CC[C@H](N(C)C)C3)c(C(F)(F)F)c2)cc1Nc1nccc(-c2cncnc2)n1 [bafetinib]
How it was run: (§1)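 K562 cells at 2×10^6 cells/mL were treated with 10 μM compound for 30 min. Aliquots were heated for 3 min across 48°C-58°C, pooled, and extracted in PBS with 0.5% NP-40 at 4°C; soluble protein was the supernatant after 21,000xg for 90 min. Soluble protein was quantified by TMTpro 16plex LC-MS/MS with channel sums equalised, and reported as log2 fold change in thermal stability against DMSO controls, with values from duplicates.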

By UniProt entry, the sequences of proteins in these tests, tags left out. Where a name states a change or a piece, a line headed by the entry shows the natural chain unless it says otherwise.
UniProt P60484: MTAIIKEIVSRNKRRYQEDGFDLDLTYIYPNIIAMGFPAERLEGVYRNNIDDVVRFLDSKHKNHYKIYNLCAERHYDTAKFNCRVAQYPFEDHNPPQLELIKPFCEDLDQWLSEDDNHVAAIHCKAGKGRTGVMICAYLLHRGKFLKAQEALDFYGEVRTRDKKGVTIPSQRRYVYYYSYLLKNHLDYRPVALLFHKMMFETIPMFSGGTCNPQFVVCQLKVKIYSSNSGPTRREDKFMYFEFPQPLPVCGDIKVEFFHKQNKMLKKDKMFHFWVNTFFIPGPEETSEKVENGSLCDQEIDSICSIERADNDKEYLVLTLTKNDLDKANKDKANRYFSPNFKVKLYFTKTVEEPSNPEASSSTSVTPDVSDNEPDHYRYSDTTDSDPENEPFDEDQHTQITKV
UniProt Q8TB72: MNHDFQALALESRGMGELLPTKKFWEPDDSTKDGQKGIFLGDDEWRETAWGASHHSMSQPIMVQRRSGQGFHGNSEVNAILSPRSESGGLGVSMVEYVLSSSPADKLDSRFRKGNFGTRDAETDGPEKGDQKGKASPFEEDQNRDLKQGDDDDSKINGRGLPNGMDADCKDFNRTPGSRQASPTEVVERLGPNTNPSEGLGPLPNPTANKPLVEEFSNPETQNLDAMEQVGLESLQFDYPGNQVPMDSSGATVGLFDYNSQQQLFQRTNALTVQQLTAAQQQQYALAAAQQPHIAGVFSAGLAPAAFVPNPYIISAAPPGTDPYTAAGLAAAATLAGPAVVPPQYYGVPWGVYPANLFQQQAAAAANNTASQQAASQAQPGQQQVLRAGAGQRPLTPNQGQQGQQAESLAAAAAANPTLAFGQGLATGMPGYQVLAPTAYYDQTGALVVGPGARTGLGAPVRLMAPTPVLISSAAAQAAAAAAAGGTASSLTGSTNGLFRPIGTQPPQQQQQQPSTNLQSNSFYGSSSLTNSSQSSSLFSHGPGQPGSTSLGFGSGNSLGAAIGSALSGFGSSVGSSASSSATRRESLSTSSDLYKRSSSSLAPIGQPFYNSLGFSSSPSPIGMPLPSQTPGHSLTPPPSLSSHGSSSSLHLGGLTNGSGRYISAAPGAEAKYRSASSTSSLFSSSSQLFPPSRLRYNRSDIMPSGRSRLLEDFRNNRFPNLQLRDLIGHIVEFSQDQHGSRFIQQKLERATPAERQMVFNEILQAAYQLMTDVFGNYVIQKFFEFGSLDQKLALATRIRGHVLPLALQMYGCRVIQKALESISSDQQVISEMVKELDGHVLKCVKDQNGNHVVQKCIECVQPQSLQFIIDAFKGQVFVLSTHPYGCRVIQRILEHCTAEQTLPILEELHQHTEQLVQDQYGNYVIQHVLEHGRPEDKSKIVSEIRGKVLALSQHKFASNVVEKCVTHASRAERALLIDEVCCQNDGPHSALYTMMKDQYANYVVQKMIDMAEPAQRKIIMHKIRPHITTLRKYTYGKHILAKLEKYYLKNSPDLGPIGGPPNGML
UniProt Q86Y79: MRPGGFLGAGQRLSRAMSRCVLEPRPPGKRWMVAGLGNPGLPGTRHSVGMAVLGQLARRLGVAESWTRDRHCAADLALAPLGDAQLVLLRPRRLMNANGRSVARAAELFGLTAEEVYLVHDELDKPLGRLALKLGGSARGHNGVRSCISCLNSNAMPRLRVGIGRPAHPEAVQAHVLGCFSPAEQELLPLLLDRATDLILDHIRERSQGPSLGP
UniProt Q99952: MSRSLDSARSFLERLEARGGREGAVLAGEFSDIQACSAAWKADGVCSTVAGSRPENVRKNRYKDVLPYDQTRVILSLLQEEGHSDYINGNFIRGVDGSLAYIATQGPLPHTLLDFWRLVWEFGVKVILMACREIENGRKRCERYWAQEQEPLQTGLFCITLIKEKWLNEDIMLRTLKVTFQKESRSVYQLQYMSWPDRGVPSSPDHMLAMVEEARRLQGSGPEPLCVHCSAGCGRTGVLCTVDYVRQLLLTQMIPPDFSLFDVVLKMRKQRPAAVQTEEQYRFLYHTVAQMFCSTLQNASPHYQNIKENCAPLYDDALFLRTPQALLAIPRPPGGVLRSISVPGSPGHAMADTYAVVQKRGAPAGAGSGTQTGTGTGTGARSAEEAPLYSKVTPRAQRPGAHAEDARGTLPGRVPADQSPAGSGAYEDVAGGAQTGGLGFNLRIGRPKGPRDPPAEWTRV
UniProt Q8N0Z8: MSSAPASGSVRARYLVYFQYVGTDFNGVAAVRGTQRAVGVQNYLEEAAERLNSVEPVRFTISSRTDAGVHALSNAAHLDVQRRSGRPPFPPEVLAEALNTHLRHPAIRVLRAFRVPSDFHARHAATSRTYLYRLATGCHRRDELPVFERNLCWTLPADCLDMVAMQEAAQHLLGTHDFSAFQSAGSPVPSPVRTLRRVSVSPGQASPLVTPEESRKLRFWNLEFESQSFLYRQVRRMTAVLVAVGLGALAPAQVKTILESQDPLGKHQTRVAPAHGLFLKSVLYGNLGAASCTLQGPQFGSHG
UniProt Q8WUY3: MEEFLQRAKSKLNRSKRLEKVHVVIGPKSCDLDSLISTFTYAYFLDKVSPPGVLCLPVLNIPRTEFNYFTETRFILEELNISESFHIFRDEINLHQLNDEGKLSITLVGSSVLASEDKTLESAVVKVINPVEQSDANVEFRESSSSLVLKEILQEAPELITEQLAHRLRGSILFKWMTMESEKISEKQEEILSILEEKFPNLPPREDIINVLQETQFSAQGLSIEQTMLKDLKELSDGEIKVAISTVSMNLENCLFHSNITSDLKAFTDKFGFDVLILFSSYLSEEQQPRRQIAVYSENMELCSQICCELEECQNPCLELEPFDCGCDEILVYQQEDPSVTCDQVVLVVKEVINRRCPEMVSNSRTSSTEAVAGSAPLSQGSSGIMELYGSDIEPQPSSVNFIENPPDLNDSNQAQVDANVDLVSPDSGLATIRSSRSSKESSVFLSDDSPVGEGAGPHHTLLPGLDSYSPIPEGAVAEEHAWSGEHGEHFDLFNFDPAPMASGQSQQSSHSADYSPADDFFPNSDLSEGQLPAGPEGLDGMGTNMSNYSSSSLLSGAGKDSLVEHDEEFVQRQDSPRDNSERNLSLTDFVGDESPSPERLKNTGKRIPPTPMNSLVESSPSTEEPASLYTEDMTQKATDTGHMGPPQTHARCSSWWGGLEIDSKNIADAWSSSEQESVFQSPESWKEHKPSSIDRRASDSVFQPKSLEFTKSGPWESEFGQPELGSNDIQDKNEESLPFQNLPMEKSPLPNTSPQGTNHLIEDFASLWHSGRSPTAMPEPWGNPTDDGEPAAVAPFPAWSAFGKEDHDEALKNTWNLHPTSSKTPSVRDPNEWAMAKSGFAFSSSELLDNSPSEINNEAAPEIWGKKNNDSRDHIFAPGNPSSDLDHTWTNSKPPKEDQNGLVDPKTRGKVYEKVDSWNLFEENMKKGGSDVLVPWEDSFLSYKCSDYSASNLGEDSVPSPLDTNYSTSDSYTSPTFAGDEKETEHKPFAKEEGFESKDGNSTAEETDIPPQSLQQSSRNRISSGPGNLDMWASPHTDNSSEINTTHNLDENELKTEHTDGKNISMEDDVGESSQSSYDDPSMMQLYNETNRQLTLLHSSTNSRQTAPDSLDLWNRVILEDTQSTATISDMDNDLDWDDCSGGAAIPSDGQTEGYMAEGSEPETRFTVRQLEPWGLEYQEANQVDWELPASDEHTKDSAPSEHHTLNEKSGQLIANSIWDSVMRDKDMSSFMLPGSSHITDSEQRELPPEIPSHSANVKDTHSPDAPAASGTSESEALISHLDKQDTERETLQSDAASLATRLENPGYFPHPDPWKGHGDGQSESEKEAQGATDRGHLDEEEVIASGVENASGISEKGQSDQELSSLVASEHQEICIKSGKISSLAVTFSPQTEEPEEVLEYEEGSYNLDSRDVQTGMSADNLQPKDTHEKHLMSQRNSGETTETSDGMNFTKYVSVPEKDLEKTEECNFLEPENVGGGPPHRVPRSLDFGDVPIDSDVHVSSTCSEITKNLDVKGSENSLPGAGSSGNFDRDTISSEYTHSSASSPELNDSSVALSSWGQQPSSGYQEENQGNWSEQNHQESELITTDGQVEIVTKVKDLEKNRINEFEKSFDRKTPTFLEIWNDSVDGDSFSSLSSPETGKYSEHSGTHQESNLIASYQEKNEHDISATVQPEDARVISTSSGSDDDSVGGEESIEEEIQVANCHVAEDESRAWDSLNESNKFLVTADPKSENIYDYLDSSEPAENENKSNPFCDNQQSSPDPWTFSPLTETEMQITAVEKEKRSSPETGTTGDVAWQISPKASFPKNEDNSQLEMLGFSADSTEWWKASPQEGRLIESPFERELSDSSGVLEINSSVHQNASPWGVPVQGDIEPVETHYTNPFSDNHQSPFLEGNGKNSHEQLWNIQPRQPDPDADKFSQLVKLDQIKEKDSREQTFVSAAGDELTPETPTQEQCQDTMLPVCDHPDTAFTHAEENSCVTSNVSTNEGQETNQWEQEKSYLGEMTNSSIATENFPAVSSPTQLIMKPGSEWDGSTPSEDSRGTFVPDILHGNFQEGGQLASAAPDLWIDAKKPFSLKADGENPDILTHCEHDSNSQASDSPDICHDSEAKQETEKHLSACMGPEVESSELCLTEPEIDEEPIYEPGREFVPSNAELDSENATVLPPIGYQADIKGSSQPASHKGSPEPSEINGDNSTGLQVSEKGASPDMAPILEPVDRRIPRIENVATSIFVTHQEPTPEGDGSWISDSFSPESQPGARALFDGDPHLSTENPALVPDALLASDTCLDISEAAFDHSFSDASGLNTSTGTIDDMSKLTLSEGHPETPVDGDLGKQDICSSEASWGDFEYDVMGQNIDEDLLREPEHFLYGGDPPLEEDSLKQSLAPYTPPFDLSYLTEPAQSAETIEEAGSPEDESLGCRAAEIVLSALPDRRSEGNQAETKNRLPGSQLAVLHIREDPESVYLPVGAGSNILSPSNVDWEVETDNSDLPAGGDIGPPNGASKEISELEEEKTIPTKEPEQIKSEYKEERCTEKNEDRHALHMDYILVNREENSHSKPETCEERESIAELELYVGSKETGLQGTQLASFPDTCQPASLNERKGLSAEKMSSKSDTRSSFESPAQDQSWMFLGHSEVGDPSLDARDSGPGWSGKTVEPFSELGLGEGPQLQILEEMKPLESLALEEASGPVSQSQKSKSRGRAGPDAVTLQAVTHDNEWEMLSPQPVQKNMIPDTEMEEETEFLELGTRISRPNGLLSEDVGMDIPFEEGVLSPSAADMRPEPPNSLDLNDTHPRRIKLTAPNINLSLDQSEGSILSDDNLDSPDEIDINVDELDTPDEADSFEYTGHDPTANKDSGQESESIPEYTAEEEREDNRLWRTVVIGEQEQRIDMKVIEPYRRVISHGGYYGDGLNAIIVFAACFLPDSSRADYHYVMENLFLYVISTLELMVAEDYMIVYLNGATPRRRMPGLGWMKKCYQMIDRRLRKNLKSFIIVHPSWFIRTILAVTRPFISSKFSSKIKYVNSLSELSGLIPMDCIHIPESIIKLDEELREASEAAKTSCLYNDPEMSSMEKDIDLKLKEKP
UniProt Q7Z5L2: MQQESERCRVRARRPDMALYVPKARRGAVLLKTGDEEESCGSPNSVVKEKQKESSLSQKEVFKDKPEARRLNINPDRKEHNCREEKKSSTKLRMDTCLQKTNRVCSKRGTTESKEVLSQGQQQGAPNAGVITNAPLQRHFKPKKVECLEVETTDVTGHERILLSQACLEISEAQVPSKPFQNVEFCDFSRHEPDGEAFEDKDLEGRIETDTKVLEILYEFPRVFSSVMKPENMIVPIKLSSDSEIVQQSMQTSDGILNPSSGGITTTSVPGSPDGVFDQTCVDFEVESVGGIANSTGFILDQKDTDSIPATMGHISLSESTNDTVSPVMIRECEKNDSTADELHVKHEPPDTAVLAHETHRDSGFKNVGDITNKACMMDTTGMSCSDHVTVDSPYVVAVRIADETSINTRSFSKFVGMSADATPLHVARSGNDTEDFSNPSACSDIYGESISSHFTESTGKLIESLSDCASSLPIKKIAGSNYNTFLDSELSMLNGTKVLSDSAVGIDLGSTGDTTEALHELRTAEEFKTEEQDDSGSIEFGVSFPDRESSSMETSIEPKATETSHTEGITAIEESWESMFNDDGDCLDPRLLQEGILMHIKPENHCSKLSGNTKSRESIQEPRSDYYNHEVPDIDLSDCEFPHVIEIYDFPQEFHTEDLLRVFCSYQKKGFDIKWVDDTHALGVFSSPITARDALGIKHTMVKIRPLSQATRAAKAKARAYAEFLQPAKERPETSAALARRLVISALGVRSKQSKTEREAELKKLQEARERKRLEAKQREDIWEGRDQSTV
UniProt Q12974: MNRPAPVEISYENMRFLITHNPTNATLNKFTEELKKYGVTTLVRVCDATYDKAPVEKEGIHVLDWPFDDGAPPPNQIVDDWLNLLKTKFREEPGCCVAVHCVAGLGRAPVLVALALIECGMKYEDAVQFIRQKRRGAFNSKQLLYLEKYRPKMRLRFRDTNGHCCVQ

[2] = compound: Cc1nc(Nc2ncc(C(=O)Nc3c(C)cccc3Cl)s2)cc(N2CCN(CCO)CC2)n1 [dasatinib]
How it was run: as §1

[3] = compound: Cn1cc(-c2ccc3nnc(C(F)(F)c4ccc5ncccc5c4)n3n2)cn1
How it was run: as §1

[4] = compound: Cn1cncc1[C@@](N)(c1ccc(Cl)cc1)c1ccc2c(c1)c(-c1cccc(Cl)c1)cc(=O)n2C [tipifarnib]
How it was run: as §1

[5] = compound: Cc1cccc(CC(=O)N2CCc3c2ccc(-c2cn(C)c4ncnc(N)c24)c3F)n1
How it was run: as §1

[6] = compound: Cn1cc(-c2ccc3c(c2)CCN3C(=O)Cc2cccc(C(F)(F)F)c2)c2c(N)ncnc21
How it was run: as §1

[7] = compound: Cc1cn(-c2cc(NC(=O)c3ccc(C)c(Nc4nccc(-c5cccnc5)n4)c3)cc(C(F)(F)F)c2)cn1 [nilotinib]
How it was run: as §1

[8] = compound: Cc1nc(Nc2n[nH]c3c2CN(C(=O)N[C@H](CN(C)C)c2ccccc2)C3(C)C)c2sccc2n1
How it was run: as §1

[9] = compound: Cc1ncc(-c2ccnc(Nc3ccc(S(C)(=O)=O)cc3)n2)n1C(C)C
How it was run: as §1

[10] = compound: FC(F)(F)c1ccc(/C=C/c2nc(COc3ccc(CCCCn4ccnn4)cc3)co2)cc1 [mubritinib]
How it was run: as §1

Measured: log2 fold change

PSMB5 isoform 3 (UniProt P28074)
inactive: [1] -0.247 | [2] -0.026 | [3] 0.157 | [4] 0.22

PTEN isoform 2 (UniProt P60484)
inactive: [5] 0.158 | [3] -0.087 | [4] -0.212

PUM2 isoform 3 (UniProt Q8TB72)
inactive: [2] 0.033 | [6] 0.051

PTRH1 (UniProt Q86Y79)
inactive: [5] 0.03 | [2] 0.005 | [6] -0.1 | [3] -0.01

PTPN18 (UniProt Q99952)
inactive: [7] 0.019 | [8] -0.171 | [9] 0.011 | [3] 0.04 | [10] 0.029

PUSL1 (UniProt Q8N0Z8)
inactive: [5] -0.003 | [6] -0.435 | [3] -0.141 | [10] 0.064

PRUNE2 isoform 3 (UniProt Q8WUY3)
inactive: [7] 0.196 | [8] -0.124 | [2] -0.061 | [9] 0.079 | [3] 0.012 | [4] -0.173 | [10] -0.058

R3HCC1L (UniProt Q7Z5L2)
inactive: [5] -0.059 | [7] 0.006 | [8] -0.365 | [9] 0.261 | [6] -0.163 | [4] 0.18

PSMA3 (UniProt G3V4X5)
inactive: [1] 0.159 | [3] 0.174 | [4] 0.067

Two successive records already listed, for reference:
PTPN18 (UniProt Q99952)
inactive: [7] 0.019 | [8] -0.171 | [9] 0.011 | [3] 0.04 | [10] 0.029

PUSL1 (UniProt Q8N0Z8)
inactive: [5] -0.003 | [6] -0.435 | [3] -0.141 | [10] 0.064

More records:

PUM1 (UniProt Q14671)
inactive: [5] -0.202 | [2] -0.207 | [6] 0.229

PSMA3 (UniProt H0YJ03)
inactive: [2] 0.133 | [6] 0.036 | [3] -0.017 | [4] 0.02

PTP4A2 (UniProt Q12974)
active: [9] -0.43
inactive: [1] -0.045 | [7] 0.007 | [8] -0.056 | [2] 0.089 | [6] 0.094 | [3] -0.013 | [4] 0.048 | [10] 0.047

PYCARD isoform 2 (UniProt Q9ULZ3)
inactive: [3] -0.018

PSEN1 (UniProt P49768)
inactive: [1] 0.015 | [7] 0.062 | [8] 0.104 | [2] 0.003 | [9] 0.007 | [6] 0.06 | [3] 0.064 | [4] 0.131 | [10] 0.038

PSD2 (UniProt Q9BQI7)
inactive: [7] -0.088 | [8] 0.275 | [9] -0.076 | [3] 0.05 | [10] 0.023

PSIP1 (UniProt V9GYT7)
inactive: [5] 0.014 | [7] -0.088 | [8] 0.015 | [2] -0.051 | [9] -0.025 | [6] -0.015 | [3] -0.039 | [4] -0.059 | [10] 0.011

PTPN7 isoform 3 (UniProt P35236)
inactive: [6] 0.072 | [3] -0.062 | [4] -0.314

PURG (UniProt Q9UJV8)
inactive: [7] 0.034 | [8] 0.134 | [9] 0.084

PSD3 (UniProt Q9NYI0)
inactive: [7] -0.117 | [8] 0.029 | [9] 0.014 | [6] -0.002 | [3] 0.071 | [4] -0.062 | [10] -0.035

— the supplement of paper PMC10849652
